Laboratory results reported in patent publication US20260232634A1, “TREATMENT OF PEDIATRIC CANCERS USING GYLCOGEN SYNTHASE KINASE FORM B INHIBITORS” (Actuate Therapeutics Inc., priority 2023, published 2026).

Tested on: refractory malignancies
Assay: Phase 1/2 study of 9-ING-41 as a single agent or with chemotherapy in pediatric patients with refractory malignancies
Type: in vivo, human (pediatric patients)
Conditions: pediatric patients on study

With Cn1cc(C2=C(c3coc4ccc(F)cc34)C(=O)NC2=O)c2cc3c(cc21)OCO3 [9-ING-41, 3-(5-Fluorobenzofuran-3-yl)-4-(5-methyl-5H-[1,3]dioxolo[4,5-f]indol-7-yl) pyrrole-2,5-dione] the Median treatment duration was 40 days and the “treatment duration, range” value was 1 to 126 days.
